According to article PMC7331980, “Dynamic rotation of the protruding domain enhances the infectivity of norovirus” (PLoS Pathogens, 2020):
No constants are given. Whether binding was seen depends on the method and setting. Some results given as binding are weak or reduced against the parent protein; the word gives no strength.

Chains of the proteins cited; added tags and fusions are not shown.
UniProt Q80J94: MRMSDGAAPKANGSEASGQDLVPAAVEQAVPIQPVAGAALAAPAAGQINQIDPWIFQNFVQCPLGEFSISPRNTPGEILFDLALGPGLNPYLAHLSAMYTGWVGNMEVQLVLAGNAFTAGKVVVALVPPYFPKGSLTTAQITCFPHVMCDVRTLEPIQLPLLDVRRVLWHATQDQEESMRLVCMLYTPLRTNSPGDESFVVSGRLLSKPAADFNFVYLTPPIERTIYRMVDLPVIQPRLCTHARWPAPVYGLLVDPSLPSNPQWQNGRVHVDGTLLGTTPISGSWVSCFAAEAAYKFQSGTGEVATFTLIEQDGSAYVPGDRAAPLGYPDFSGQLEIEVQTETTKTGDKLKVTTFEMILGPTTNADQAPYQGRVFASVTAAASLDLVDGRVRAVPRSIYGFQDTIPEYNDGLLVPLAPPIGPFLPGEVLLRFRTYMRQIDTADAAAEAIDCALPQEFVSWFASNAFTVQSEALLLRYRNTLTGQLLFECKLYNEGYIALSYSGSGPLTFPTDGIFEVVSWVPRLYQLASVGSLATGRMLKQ

Experiments:
[1] = molecular target: T1, CD300lf, cellular receptor of MNoV, expressed on HEK293T cells (UniProt Q6SJQ7); experiment: virus attachment to cells measured by qRT-PCR; purified infectious particles pretreated with PBS(-)+EDTA (pH 8); HEK293T/CD300lf cells, 10^5 cells/well, MOI ≦ 10, 30 min at 37°C, washed twice with DMEM, RNA of attached virus by qRT-PCR; only the binder purified
T1 sequence: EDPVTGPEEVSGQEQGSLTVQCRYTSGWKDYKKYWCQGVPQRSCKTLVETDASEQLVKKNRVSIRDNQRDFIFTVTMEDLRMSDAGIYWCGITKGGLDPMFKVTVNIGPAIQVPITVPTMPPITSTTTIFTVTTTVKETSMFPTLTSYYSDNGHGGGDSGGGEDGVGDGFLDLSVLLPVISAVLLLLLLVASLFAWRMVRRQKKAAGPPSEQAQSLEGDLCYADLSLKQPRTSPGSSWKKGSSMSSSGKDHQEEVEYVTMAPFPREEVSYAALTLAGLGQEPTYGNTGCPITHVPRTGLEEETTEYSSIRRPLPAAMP

[2] = molecular target: T1, CD300lf, cellular receptor of MNoV, expressed on HEK293T cells; experiment: virus attachment to cells measured by qRT-PCR; purified infectious particles pretreated with DMEM; HEK293T/CD300lf cells, 10^5 cells/well, MOI ≦ 10, 30 min at 37°C, washed twice with DMEM, RNA of attached virus by qRT-PCR; only the binder purified

Substance: VP1 capsid protein of murine norovirus type 1 (MNoV-1), as the capsid of infectious particles (from UniProt Q80J94 1-541)
- binding [1]: binds
- binding [2]: binds
